PubChem BioAssay AID1224826 | NIAID, 2016

- Test: 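Genes that change LPS-induced Tnf promoter activity in mouse macrophages when knocked down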 (primary screen)
- System: RAW264.7 G9 macrophages from mouse bearing reporters for p65 (GFP) and the Tnf promoter (mCherry)
- Reagent: siRNA pool against mouse genes, 100 nM
- Time to read-out: 16 h of LPS stimulation, after 2 days of siRNA transfection
- Conditions: bacterial lipopolysaccharide (Salmonella minnesota R595), 10 ng/ml
- Detection: 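Imaged Tnf reporter mCherry in nuclei, minus background, normalised per plate to the median and expressed as robust z-scores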
- Scale: Tnf reporter robust z-score: higher = stronger Tnf promoter reporter signal after LPS; Tnf reporter intensity: higher = stronger Tnf promoter reporter signal
- Rule for the call: 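Called active when robust z-score is at most -1.3, matching the median of the Tlr4 knock-down control, or over 3; control wells and wells with under 50 cells never active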
- Meaning of the calls: active = Tnf reporter clearly lowered or raised; inactive = no clear change in Tnf reporter
Here is a random part of about 17,000 reagents. Over the whole deposit, about 1,110 (6.6%) got an active call. 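Active means lowered or raised reporter signal; replicate intensities are raw and not normalised per plate.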 No sequences are given here.

| gene | Tnf reporter robust z-score | fewer than 50 cells in well | Tnf reporter intensity, replicate 1 | Tnf reporter intensity, replicate 2 | activity call |
| --- | --- | --- | --- | --- | --- |
| Lca5 | – | fewer than 50 cells per well; well left out of calls | 320 | 143 | inactive |
| Elovl1 | -0.18 | enough cells in well | 178 | 106 | inactive |
| Gatd1 | 0.02 | enough cells in well | 230 | 183 | inactive |
| Or56a3 | 1.44 | enough cells in well | 159 | 176 | inactive |
| Myl9 | -0.03 | enough cells in well | 288 | 180 | inactive |
| Adam11 | -0.62 | enough cells in well | 131 | 135 | inactive |
| Or5aq6 | 0.3 | enough cells in well | 195 | 175 | inactive |
| Egflam | 0.68 | enough cells in well | 213 | 199 | inactive |
| 4933427D14Rik | -1.12 | enough cells in well | 123 | 78.7 | inactive |
| Mcm2 | 0.62 | enough cells in well | 301 | 263 | inactive |
| Fam43a | 1.02 | enough cells in well | 263 | 295 | inactive |
| Tmem255a | 0.06 | enough cells in well | 137 | 204 | inactive |
| Or4e5 | 1.06 | enough cells in well | 232 | 173 | inactive |
| Cypt3 | 1.23 | enough cells in well | 276 | 130 | inactive |
| Rftn1 | – | fewer than 50 cells per well; well left out of calls | 233 | 72.6 | inactive |
| Tlr1 | 2.15 | enough cells in well | 299 | 150 | inactive |
| A930012M17 | 0.34 | enough cells in well | 150 | 215 | inactive |
| Zfp622 | 0.94 | enough cells in well | 155 | 174 | inactive |
| Cd7 | -0.1 | enough cells in well | 189 | 153 | inactive |
| 9330119M13Rik | -0.44 | enough cells in well | 226 | 152 | inactive |
| Tnnt1 | 0.61 | enough cells in well | 280 | 163 | inactive |
| Akr1a1 | 0.98 | enough cells in well | 275 | 167 | inactive |
| Plekhm3 | 1.02 | enough cells in well | 278 | 215 | inactive |
| Or9s14 | -1.24 | enough cells in well | 108 | 68.7 | inactive |
| Hpx | -1 | enough cells in well | 182 | 95.5 | inactive |
| Il1rl2 | 0.1 | enough cells in well | 240 | 104 | inactive |
| Or1j16 | -0.08 | enough cells in well | 187 | 109 | inactive |
| Nlrp9c | 0.03 | enough cells in well | 267 | 208 | inactive |
| Sbsn | -0.92 | enough cells in well | 94 | 82.5 | inactive |
| Kif22 | 0.28 | enough cells in well | 276 | 154 | inactive |
| Psmd3 | – | fewer than 50 cells per well; well left out of calls | 12.6 | 206 | inactive |
| Sgf29 | 4.16 | enough cells in well | 502 | 301 | active |
| Cnpy2 | -0.94 | enough cells in well | 202 | 64.5 | inactive |
| Il22ra2 | -0.33 | enough cells in well | 201 | 143 | inactive |
| Lypd1 | -1.16 | enough cells in well | 156 | 47.7 | inactive |
| Pou2f3 | -0.25 | enough cells in well | 219 | 181 | inactive |
| Piga | -0.3 | enough cells in well | 222 | 171 | inactive |
| Irs3 | 1.04 | enough cells in well | 228 | 200 | inactive |
| BC049715 | -0.66 | enough cells in well | 90.1 | 122 | inactive |
| Fignl1 | -0.82 | enough cells in well | 177 | 100 | inactive |
